Laboratory results: PubChem BioAssay AID686943 (Drosophila RNAi Screening Center, 2013)
Assay: 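Fly genes whose loss alters ERK activation after insulin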 (primary screen). Cells: Drosophila S2R+ haemocyte-like cells expressing YFP-tagged ERK (Rolled). Knock-down reagent: long dsRNA against Drosophila genes. Challenge: insulin stimulation versus unstimulated cells; dose and duration not given. Detection: 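Per-plate z-scores of phospho-ERK immunostaining normalised to YFP-tagged ERK, measured with and without insulin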. Scale: replicate 1, z-score of dpERK with insulin and replicate 2, z-score of dpERK with insulin: higher = more active ERK per ERK-YFP after insulin.
In all, the deposit lists about 23,000 reagents; shown is a random part of those that have a named target and a result. 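Extra replicates exist only for a retested subset of genes; insulin dose and duration not given; both raised and lowered dpERK matter.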 Reagents against one gene are numbered here. Names joined by + are all predicted targets of the reagent. Not all columns of the deposit are shown. Not stated in the record: the amount of reagent, the time to read-out.

Lk (GeneID 47746) | replicate 1, z-score of dpERK with insulin: 0.99; replicate 2, z-score of dpERK with insulin: 0.78
Ndg (GeneID 36089) | replicate 1, z-score of dpERK with insulin: -0.29; replicate 2, z-score of dpERK with insulin: 0.03
CG14036 (GeneID 33735) | replicate 1, z-score of dpERK with insulin: -0.18; replicate 2, z-score of dpERK with insulin: 0.16
Synj (GeneID 37517) | replicate 1, z-score of dpERK with insulin: 0.28; replicate 2, z-score of dpERK with insulin: -0.02
HDAC6 (GeneID 32461) | replicate 1, z-score of dpERK with insulin: -0.34; replicate 2, z-score of dpERK with insulin: 0.37
CG9213 (GeneID 32490) | replicate 1, z-score of dpERK with insulin: -0.38; replicate 2, z-score of dpERK with insulin: -0.24
gammaSnap1 (GeneID 37842) | replicate 1, z-score of dpERK with insulin: 0.74; replicate 2, z-score of dpERK with insulin: 0.16
CG13040 (GeneID 39804) | replicate 1, z-score of dpERK with insulin: -0.46; replicate 2, z-score of dpERK with insulin: -0.95
CG43673 + CG43672 #1 | replicate 1, z-score of dpERK with insulin: -0.16; replicate 2, z-score of dpERK with insulin: -0.27
CG43673 + CG43672 #2 | replicate 1, z-score of dpERK with insulin: 0.2; replicate 2, z-score of dpERK with insulin: 0.07
CG6961 + CG18259 #1 | replicate 1, z-score of dpERK with insulin: 0.45; replicate 2, z-score of dpERK with insulin: 0.29
CG6961 + CG18259 #2 | replicate 1, z-score of dpERK with insulin: 0.6; replicate 2, z-score of dpERK with insulin: -0.06
CG8584 (GeneID 35856) | replicate 1, z-score of dpERK with insulin: 0.18; replicate 2, z-score of dpERK with insulin: 0.5
CG7091 (GeneID 41590) #1 | replicate 1, z-score of dpERK with insulin: -0.97; replicate 2, z-score of dpERK with insulin: -0.15
CG7091 (GeneID 41590) #2 | replicate 1, z-score of dpERK with insulin: -0.36; replicate 2, z-score of dpERK with insulin: 1.22
CG9106 (GeneID 32454) | replicate 1, z-score of dpERK with insulin: 0.1; replicate 2, z-score of dpERK with insulin: 0.57
Ser6 (GeneID 33073) | replicate 1, z-score of dpERK with insulin: 1.32; replicate 2, z-score of dpERK with insulin: 0.15
Fkbp12 (GeneID 37214) | replicate 1, z-score of dpERK with insulin: 0.13; replicate 2, z-score of dpERK with insulin: -0.54
CG32112 (GeneID 317860) | replicate 1, z-score of dpERK with insulin: -0.03; replicate 2, z-score of dpERK with insulin: 0.32
mRpS10 (GeneID 41838) | replicate 1, z-score of dpERK with insulin: 0.33; replicate 2, z-score of dpERK with insulin: 0.47
CG13511 (GeneID 37597) | replicate 1, z-score of dpERK with insulin: 0.6; replicate 2, z-score of dpERK with insulin: 0.33
Tina-1 (GeneID 37989) | replicate 1, z-score of dpERK with insulin: -0.47; replicate 2, z-score of dpERK with insulin: -0.34
Lsp1gamma (GeneID 38015) | replicate 1, z-score of dpERK with insulin: -0.14; replicate 2, z-score of dpERK with insulin: -0.29
Gs2 (GeneID 32087) | replicate 1, z-score of dpERK with insulin: -0.51; replicate 2, z-score of dpERK with insulin: -0.19
Dic4 (GeneID 40039) | replicate 1, z-score of dpERK with insulin: -0.53; replicate 2, z-score of dpERK with insulin: 1.45
stc (GeneID 34888) | replicate 1, z-score of dpERK with insulin: -0.5; replicate 2, z-score of dpERK with insulin: -0.2
tank (GeneID 33684) | replicate 1, z-score of dpERK with insulin: 0.06; replicate 2, z-score of dpERK with insulin: 0.06
Drp1 (GeneID 33445) | replicate 1, z-score of dpERK with insulin: 0.04; replicate 2, z-score of dpERK with insulin: -0.36
uif (GeneID 33983) #1 | replicate 1, z-score of dpERK with insulin: 2.63; replicate 2, z-score of dpERK with insulin: 1.15
uif (GeneID 33983) #2 | replicate 1, z-score of dpERK with insulin: 0.58; replicate 2, z-score of dpERK with insulin: 0.12
tobi (GeneID 43072) | replicate 1, z-score of dpERK with insulin: 0.31; replicate 2, z-score of dpERK with insulin: 0

4 entries already listed, sorted by “replicate 1, z-score of dpERK with insulin”, highest first:
gammaSnap1 (GeneID 37842) | replicate 1, z-score of dpERK with insulin: 0.74; replicate 2, z-score of dpERK with insulin: 0.16
Synj (GeneID 37517) | replicate 1, z-score of dpERK with insulin: 0.28; replicate 2, z-score of dpERK with insulin: -0.02
HDAC6 (GeneID 32461) | replicate 1, z-score of dpERK with insulin: -0.34; replicate 2, z-score of dpERK with insulin: 0.37
CG9213 (GeneID 32490) | replicate 1, z-score of dpERK with insulin: -0.38; replicate 2, z-score of dpERK with insulin: -0.24
